Source: the supplement of paper PMC4604168 (melanoma cell lines)
This is one part of the list. Many values rest on one well or one pass, so single values are uncertain.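 The apoptosis fraction was the count of cleaved-PARP antibody-stained nuclei relative to all DNA-stained nuclei, imaged in 1,536-well plates. Screening doses were set so most cells survived, and baseline and induced cleaved-PARP levels vary greatly across cell lines.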

Legend:
Assay in all cases: cleaved PARP positive nuclei fraction relative to DMSO control; melanoma cells; higher = more apoptosis
Conditions in all cases: library dose: low library concentration; 72 h
MZ2-MEL = tested on: MZ2-MEL
MeWo = tested on: MeWo
RPMI7951 = tested on: RPMI7951
RVH-421 = tested on: RVH-421
SkMel28 = tested on: SkMel28
SkMel30 = tested on: SkMel30
UACC62 = tested on: UACC62
WM115 = tested on: WM115
WM1716 = tested on: WM1716
WM1745 = tested on: WM1745
WM3526 = tested on: WM3526
WM3619 = tested on: WM3619
WM451Lu = tested on: WM451Lu
SkMel2 = tested on: SkMel2
SkMel5 = tested on: SkMel5
UACC257 = tested on: UACC257

Compound | cleaved PARP positive nuclei fraction (MZ2-MEL) | cleaved PARP positive nuclei fraction (MeWo) | cleaved PARP positive nuclei fraction (RPMI7951) | cleaved PARP positive nuclei fraction (RVH-421) | cleaved PARP positive nuclei fraction (SkMel28) | cleaved PARP positive nuclei fraction (SkMel30) | cleaved PARP positive nuclei fraction (UACC62) | cleaved PARP positive nuclei fraction (WM115) | cleaved PARP positive nuclei fraction (WM1716) | cleaved PARP positive nuclei fraction (WM1745) | cleaved PARP positive nuclei fraction (WM3526) | cleaved PARP positive nuclei fraction (WM3619) | cleaved PARP positive nuclei fraction (WM451Lu) | cleaved PARP positive nuclei fraction (SkMel2) | cleaved PARP positive nuclei fraction (SkMel5) | cleaved PARP positive nuclei fraction (UACC257)
Cc1ccc(Nc2nccc(N(C)c3ccc4c(C)n(C)nc4c3)n2)cc1S(N)(=O)=O [Pazopanib] + CO[C@H]1C[C@@H]2CC[C@@H](C)[C@@](O)(O2)C(=O)C(=O)N2CCCC[C@H]2C(=O)O[C@H]([C@H](C)C[C@@H]2CC[C@@H](OCCO)[C@H](OC)C2)CC(=O)[C@H](C)/C=C(\C)[C@@H](O)[C@@H](OC)C(=O)[C@H](C)C[C@H](C)/C=C/C=C/C=C/1C [everolimus] (first compound 0.4 µM, partner dose 0.02 µM) | 152% | 409% | 26.3% | 71.9% | 143% | 112% | 181% | 48.4% | 963% | 97.7% | 57.3% | 115% | 103% | – | – | –
N#CC[C@H](C1CCCC1)n1cc(-c2ncnc3[nH]ccc23)cn1 [ruxolitinib] + CO[C@H]1C[C@@H]2CC[C@@H](C)[C@@](O)(O2)C(=O)C(=O)N2CCCC[C@H]2C(=O)O[C@H]([C@H](C)C[C@@H]2CC[C@@H](OCCO)[C@H](OC)C2)CC(=O)[C@H](C)/C=C(\C)[C@@H](O)[C@@H](OC)C(=O)[C@H](C)C[C@H](C)/C=C/C=C/C=C/1C [everolimus] (first compound 1 µM, partner dose 0.02 µM) | 48.3% | 159% | 82.8% | 71.4% | 55.7% | 54.9% | 183% | 126% | 74.7% | 115% | 49% | 121% | 31.2% | – | – | –
CC[C@]1(O)C[C@H]2CN(CCc3c([nH]c4ccccc34)[C@@](C(=O)OC)(c3cc4c(cc3OC)N(C=O)[C@H]3[C@@](O)(C(=O)OC)[C@H](OC(C)=O)[C@]5(CC)C=CCN6CC[C@]43[C@@H]65)C2)C1 [vincristine] + NC(=O)c1ccc(N(C(N)=O)c2c(F)cccc2F)nc1-c1ccc(F)cc1F [VX702] (first compound 0.0001 µM, partner dose 0.4 µM) | 83.6% | 129% | 363% | 146% | 69.8% | 398% | 101% | 587% | 56.8% | 892% | 38% | 382% | 60% | – | – | –
COc1cc([C@@H]2c3cc4c(cc3[C@@H](O[C@@H]3O[C@@H]5CO[C@@H](C)O[C@H]5[C@H](O)[C@H]3O)[C@H]3COC(=O)[C@H]23)OCO4)cc(OC)c1O [etoposide] + CC(C)CCN1c2nc(Nc3cc(F)c(O)c(F)c3)ncc2N(C)C(=O)C1C [BID1870] (first compound 0.02 µM, partner dose 0.2 µM) | 127% | – | 89.5% | 106% | – | 96.8% | 74.5% | 122% | 99.3% | 90.3% | 45.6% | 106% | 102% | 72.3% | 85.6% | 149%
Cc1cn(-c2cc(NC(=O)c3ccc(C)c(Nc4nccc(-c5cccnc5)n4)c3)cc(C(F)(F)F)c2)cn1 [nilotinib] + CO[C@H]1C[C@@H]2CC[C@@H](C)[C@@](O)(O2)C(=O)C(=O)N2CCCC[C@H]2C(=O)O[C@H]([C@H](C)C[C@@H]2CC[C@@H](OCCO)[C@H](OC)C2)CC(=O)[C@H](C)/C=C(\C)[C@@H](O)[C@@H](OC)C(=O)[C@H](C)C[C@H](C)/C=C/C=C/C=C/1C [everolimus] (first compound 0.2 µM, partner dose 0.02 µM) | 90.3% | 72.4% | 86.6% | 545% | 368% | 70% | 343% | 113% | 26.1% | 125% | 216% | 100% | 46.5% | – | – | –
CC[C@]1(O)C[C@H]2CN(CCc3c([nH]c4ccccc34)[C@@](C(=O)OC)(c3cc4c(cc3OC)N(C=O)[C@H]3[C@@](O)(C(=O)OC)[C@H](OC(C)=O)[C@]5(CC)C=CCN6CC[C@]43[C@@H]65)C2)C1 [vincristine] + COC(=O)c1sccc1S(=O)(=O)Nc1ccc(Nc2ccccc2)cc1OC [GSK0660] (first compound 0.0001 µM, partner dose 1 µM) | – | 230% | 97.4% | 137% | 242% | 23% | 344% | 1430% | 194% | 106% | 62% | 159% | 473% | 164% | 97.6% | 591%
Cc1ccc(Nc2nccc(N(C)c3ccc4c(C)n(C)nc4c3)n2)cc1S(N)(=O)=O [Pazopanib] + CS(=O)(=O)CCNCc1ccc(-c2ccc3ncnc(Nc4ccc(OCc5cccc(F)c5)c(Cl)c4)c3c2)o1 [lapatinib] (first compound 0.4 µM, partner dose 0.8 µM) | 72% | 126% | 141% | 199% | 113% | 118% | 51.3% | 79.6% | 148% | 199% | 84.6% | 88.6% | 96.9% | – | – | –
O=C(Nc1cc(C(F)(F)F)cc(C(F)(F)F)c1)c1cc(Cl)ccc1O + C=CCn1c(=O)c2cnc(Nc3ccc(N4CCN(C)CC4)cc3)nc2n1-c1cccc(C(C)(C)O)n1 [MK1775] (first compound 0.016 µM, partner dose 0.02 µM) | – | 110% | 43.3% | 184% | 66.9% | 135% | 73.3% | 102% | 83.6% | 99% | 100% | 196% | 127% | 157% | 297% | 88.8%
